According to publication PMC4977272:
No constants are given. Whether binding was seen depends on the method and setting. In cells and extracts the contact can be indirect. Some entries that bind do so weakly or less than the wild type.

Chains of the proteins cited; added tags and fusions are not shown.
UniProt Q9D0L8: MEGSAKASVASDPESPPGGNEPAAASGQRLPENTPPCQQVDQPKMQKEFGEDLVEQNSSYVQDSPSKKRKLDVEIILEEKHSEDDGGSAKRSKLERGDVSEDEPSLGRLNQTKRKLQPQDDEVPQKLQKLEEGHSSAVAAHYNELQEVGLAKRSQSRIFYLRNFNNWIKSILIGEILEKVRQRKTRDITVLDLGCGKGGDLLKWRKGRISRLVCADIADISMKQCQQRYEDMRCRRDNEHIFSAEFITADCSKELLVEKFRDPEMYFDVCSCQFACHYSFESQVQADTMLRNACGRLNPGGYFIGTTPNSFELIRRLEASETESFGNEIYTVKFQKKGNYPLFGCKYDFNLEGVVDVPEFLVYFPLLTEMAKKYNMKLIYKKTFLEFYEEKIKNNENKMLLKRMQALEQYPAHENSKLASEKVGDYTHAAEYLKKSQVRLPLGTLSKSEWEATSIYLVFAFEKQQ
UniProt Q9CQY2: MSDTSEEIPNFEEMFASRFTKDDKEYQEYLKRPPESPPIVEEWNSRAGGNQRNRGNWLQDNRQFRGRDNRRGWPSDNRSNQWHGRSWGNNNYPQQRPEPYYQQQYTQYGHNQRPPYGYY

Assays:
[1] = target: RNMT (RNA guanine-7 methyltransferase) (mouse (endogenous in ESCs)) (UniProt Q9D0L8); experiment: co-IP; reciprocal immunoprecipitations of endogenous RNMT and RAM from ESC extracts, western blot (Figure S2C)
[2] = target: RAM (RNMT-activating miniprotein) (mouse (endogenous in ESCs)) (UniProt Q9CQY2); experiment: as above

| Substance | binding [1] | binding [2] |
| --- | --- | --- |
| RAM (RNMT-activating miniprotein) (from UniProt Q9CQY2 1-119) | binds | – |
| RNMT (RNA guanine-7 methyltransferase) (from UniProt Q9D0L8 1-465) (enzyme) | – | binds |
